Counter-ions that a name gives are not always drawn. The list shows a part of the results. This is a noisy data set.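 Optical density at 600 nm measured yeast growth. Because the two-hybrid strains grew without histidine, growth required Pex3–Pex19 binding. Trypanosome selectivity meant a compound inhibited the trypanosome-pair strain's growth by more than 65% but the human-pair strain's by less than 65%.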

One assay concerns Saccharomyces cerevisiae HF7c pdr5Δ. The assay is described as follows: general growth inhibition of yeast HF7c pdr5Δ in -Leu -Trp medium, relative to DMSO; higher = stronger general growth inhibition. The settings on record: 100 µM; 24 h.
Turning to `CCCN[C@H]1CCc2nc(N)sc2C1` [Pramipexole dihydrochloride], the general growth inhibition came out at 41.4%.

As to `O=c1c2ccccc2[nH]c(=S)n1CCN1CCC(=C(c2ccc(F)cc2)c2ccc(F)cc2)CC1` [Diacylglycerol Kinase Inhibitor II], the general growth inhibition came to 74.8%.

On to `C=CCNc1ncnc2ccc(Br)cc12`, for which the general growth inhibition is 50.6%.

`COCC(=O)O[C@]1(CCN(C)CCCc2nc3ccccc3[nH]2)CCc2cc(F)ccc2[C@@H]1C(C)C` [Mibefradil dihydrochloride]: the general growth inhibition is 40.2%.

For `COc1ccccc1N1CCN(CCCNc2cc(=O)n(C)c(=O)n2C)CC1` [Urapidil hydrochloride], the general growth inhibition was determined as 53.8%.

In the case of `C[N+](C)(C)CCCCCC[N+](C)(C)C` [Hexamethonium dichloride], the general growth inhibition was determined as 36.9%.

`O=[N+]([O-])c1ccc(-c2nc(-c3ccc(F)cc3)c(-c3ccncc3)[nH]2)cc1`: the general growth inhibition is -1.49%.

Consider `CCN(CC)CCCCCCCCOC(=O)c1cc(OC)c(OC)c(OC)c1` [TMB-8 hydrochloride], for which the general growth inhibition was 36.4%.

With `CCOC(=O)C1=C(C)NC(C)=C(C(=O)OC)C1c1cccc(Cl)c1Cl` (stereo not drawn) [Felodipine], the general growth inhibition stood at 71.7%.

For the compound `Oc1ncnc2[nH]ncc12` [Allopurinol], the general growth inhibition turned out to be 48.1%.

`Brc1ccc([C@H]2CN3CCSC3=N2)cc1` [S(-)-p-Bromotetramisole oxalate]: the general growth inhibition came out at 36%.

Regarding `Oc1cc2c(cc1O)C(c1ccccc1)CNCC2` (racemic), the general growth inhibition turned out to be 34.7%.

As to `CCN(CC)C(=S)SSC(=S)N(CC)CC` [Tetraethylthiuram disulfide], the general growth inhibition worked out at 90.8%.

Consider `CN(C)c1cc2c(Nc3ccc4c(cnn4Cc4ccccc4)c3)ncnc2cn1`, for which the general growth inhibition was 23%.

With `NCCS(=O)O` [Hypotaurine], the general growth inhibition came to 41%.

In the case of `NC(C(=O)O)C(O)C(=O)O` (racemic) [DL-threo-beta-hydroxyaspartic acid], the general growth inhibition was 36.1%.

Take `CC1=C(CC(=O)O)c2cc(F)ccc2/C1=C\c1ccc(S(C)(=O)=O)cc1` [Sulindac sulfone]: the general growth inhibition is 14.6%.

On to `Cc1cnc(NC(=O)C2=C(O)c3ccccc3S(=O)(=O)N2C)s1` [Meloxicam sodium], for which the general growth inhibition was 43.2%.

As for `CCN1CCCC1CNC(=O)c1cc(S(=O)(=O)CC)c(N)cc1OC` (stereo not drawn) [Amisulpride], the general growth inhibition was 57.4%.

For the compound `C=C(C)[C@@H]1CC=C(C(=O)O)CC1` [(-)-Perillic acid], the general growth inhibition was 69.6%.

With `CN1CCN(C2=Nc3cc(Cl)ccc3Nc3ccccc32)CC1` [Clozapine], the general growth inhibition was 38.7%.

As to `C[C@]12C[C@H](O)[C@H]3[C@@H](CCC4=CC(=O)CC[C@@]43C)[C@@H]1CC[C@@H]2C(=O)CO` [Corticosterone], the general growth inhibition amounted to 43.3%.

Consider `O=c1c(O)c(-c2cc(O)c(O)c(O)c2)oc2cc(O)cc(O)c12` [Myricetin], for which the general growth inhibition came out at 42.7%.

In the case of `O=C(CCCN1CC=C(n2c(=O)[nH]c3ccccc32)CC1)c1ccc(F)cc1` [Droperidol], the general growth inhibition was 35.6%.

As to `COc1ccccc1CNC1CCCNC1c1ccccc1` (stereo not drawn), the general growth inhibition stood at 51.3%.

In the case of `C[C@](N)(Cc1ccc(O)cc1)C(=O)O` [L-alpha-Methyl-p-tyrosine], the general growth inhibition was found to be 44.3%.

On to `COC1(C2=NCCN2)COc2ccccc2O1` (stereo not drawn), for which the general growth inhibition was found to be 50.4%.

Regarding `CCn1cc(C(=O)O)c(=O)c2cc(F)c(N3CCNC(C)C3)c(F)c21` (stereo not drawn) [Lomefloxacin hydrochloride], the general growth inhibition was 53.2%.

For `Cc1cccc(C)c1OCC(C)N` (stereo not drawn) [Mexiletene hydrochloride], the general growth inhibition worked out at 47.9%.

As for `O=C(O)c1cc2cc(Cc3cccnc3)ccc2o1` [Furegrelate sodium], the general growth inhibition came out at 37.6%.

As to `N[C@@H](Cc1ccc(F)cc1)C(=O)O` [p-Fluoro-L-phenylalanine], the general growth inhibition was 29.6%.

In the case of `Cc1cccc(C)c1NC(=O)C(C)N` (stereo not drawn) [Tocainide hydrochloride], the general growth inhibition amounted to 37.6%.

As to `Clc1ccc2nsnc2c1NC1=NCCN1` [Tizanidine hydrochloride], the general growth inhibition worked out at 40.3%.

On to `Cc1ccc(-c2cc(C(F)(F)F)nn2-c2ccc(S(N)(=O)=O)cc2)cc1` [Celecoxib], for which the general growth inhibition was 9.83%.

In the case of `C[C@@H](N)[C@H]1CC[C@H](C(=O)Nc2ccncc2)CC1`, the general growth inhibition worked out at 30%.

For `COc1ccccc1CNCCCCCCNCCCCCCCCNCCCCCCNCc1ccccc1OC` [Methoctramine tetrahydrochloride], the general growth inhibition amounted to 35.5%.

For the compound `NCC=CC(=O)O` (stereo in doubt) [cis-4-Aminocrotonic acid], the general growth inhibition was 68%.

Take `O=[N+]([O-])c1cc2nc(O)c(O)nc2cc1[N+](=O)[O-]`: the general growth inhibition came to 45.7%.

Take `Nc1ccc(-c2ccc3ccccc3n2)cc1` [BF-170 hydrochloride]: the general growth inhibition was 45.1%.

A further assay concerns human PEX3-PEX19 interaction (yeast two-hybrid). Kind of assay: growth inhibition of yeast two-hybrid strain reporting HsPex3-HsPex19 interaction, relative to DMSO; higher = stronger inhibition of human Pex3-Pex19 interaction / growth. The settings on record: 100 µM; 24 h; 3-aminotriazole 10 mM.
As for `CCCN[C@H]1CCc2nc(N)sc2C1` [Pramipexole dihydrochloride], the growth inhibition turned out to be 45.8%.

For the compound `O=c1c2ccccc2[nH]c(=S)n1CCN1CCC(=C(c2ccc(F)cc2)c2ccc(F)cc2)CC1` [Diacylglycerol Kinase Inhibitor II], the growth inhibition came out at 70.1%.

`C=CCNc1ncnc2ccc(Br)cc12`: the growth inhibition worked out at 39.6%.

Turning to `COCC(=O)O[C@]1(CCN(C)CCCc2nc3ccccc3[nH]2)CCc2cc(F)ccc2[C@@H]1C(C)C` [Mibefradil dihydrochloride], the growth inhibition was 37%.

With `COc1ccccc1N1CCN(CCCNc2cc(=O)n(C)c(=O)n2C)CC1` [Urapidil hydrochloride], the growth inhibition is 51.4%.

With `C[N+](C)(C)CCCCCC[N+](C)(C)C` [Hexamethonium dichloride], the growth inhibition amounted to 41.1%.

Regarding `O=[N+]([O-])c1ccc(-c2nc(-c3ccc(F)cc3)c(-c3ccncc3)[nH]2)cc1`, the growth inhibition is -11%.

Regarding `CCN(CC)CCCCCCCCOC(=O)c1cc(OC)c(OC)c(OC)c1` [TMB-8 hydrochloride], the growth inhibition amounted to 36.5%.

Regarding `CCOC(=O)C1=C(C)NC(C)=C(C(=O)OC)C1c1cccc(Cl)c1Cl` (stereo not drawn) [Felodipine], the growth inhibition came out at 65.7%.

Regarding `Oc1ncnc2[nH]ncc12` [Allopurinol], the growth inhibition worked out at 42.3%.

For `Brc1ccc([C@H]2CN3CCSC3=N2)cc1` [S(-)-p-Bromotetramisole oxalate], the growth inhibition came out at 33.5%.

With `Oc1cc2c(cc1O)C(c1ccccc1)CNCC2` (racemic), the growth inhibition is 33.4%.

On to `CCN(CC)C(=S)SSC(=S)N(CC)CC` [Tetraethylthiuram disulfide], for which the growth inhibition turned out to be 87.5%.

Regarding `CN(C)c1cc2c(Nc3ccc4c(cnn4Cc4ccccc4)c3)ncnc2cn1`, the growth inhibition was 9.93%.

For the compound `NCCS(=O)O` [Hypotaurine], the growth inhibition worked out at 40.3%.

On to `NC(C(=O)O)C(O)C(=O)O` (racemic) [DL-threo-beta-hydroxyaspartic acid], for which the growth inhibition was found to be 38.6%.

For the compound `CC1=C(CC(=O)O)c2cc(F)ccc2/C1=C\c1ccc(S(C)(=O)=O)cc1` [Sulindac sulfone], the growth inhibition is 24.3%.

Regarding `Cc1cnc(NC(=O)C2=C(O)c3ccccc3S(=O)(=O)N2C)s1` [Meloxicam sodium], the growth inhibition came to 34.7%.

For `CCN1CCCC1CNC(=O)c1cc(S(=O)(=O)CC)c(N)cc1OC` (stereo not drawn) [Amisulpride], the growth inhibition stood at 48.1%.

Regarding `C=C(C)[C@@H]1CC=C(C(=O)O)CC1` [(-)-Perillic acid], the growth inhibition was found to be 55%.

In the case of `CN1CCN(C2=Nc3cc(Cl)ccc3Nc3ccccc32)CC1` [Clozapine], the growth inhibition was determined as 38.8%.

For `C[C@]12C[C@H](O)[C@H]3[C@@H](CCC4=CC(=O)CC[C@@]43C)[C@@H]1CC[C@@H]2C(=O)CO` [Corticosterone], the growth inhibition stood at 45.7%.

Turning to `O=c1c(O)c(-c2cc(O)c(O)c(O)c2)oc2cc(O)cc(O)c12` [Myricetin], the growth inhibition amounted to 42.7%.

In the case of `O=C(CCCN1CC=C(n2c(=O)[nH]c3ccccc32)CC1)c1ccc(F)cc1` [Droperidol], the growth inhibition came out at 36.1%.

Turning to `COc1ccccc1CNC1CCCNC1c1ccccc1` (stereo not drawn), the growth inhibition worked out at 50.5%.

For `C[C@](N)(Cc1ccc(O)cc1)C(=O)O` [L-alpha-Methyl-p-tyrosine], the growth inhibition stood at 36.9%.

Take `COC1(C2=NCCN2)COc2ccccc2O1` (stereo not drawn): the growth inhibition was 19.8%.

With `CCn1cc(C(=O)O)c(=O)c2cc(F)c(N3CCNC(C)C3)c(F)c21` (stereo not drawn) [Lomefloxacin hydrochloride], the growth inhibition was 51.5%.

For the compound `Cc1cccc(C)c1OCC(C)N` (stereo not drawn) [Mexiletene hydrochloride], the growth inhibition was found to be 47.2%.

Turning to `O=C(O)c1cc2cc(Cc3cccnc3)ccc2o1` [Furegrelate sodium], the growth inhibition was 42.3%.

As to `N[C@@H](Cc1ccc(F)cc1)C(=O)O` [p-Fluoro-L-phenylalanine], the growth inhibition was determined as 35.7%.

Take `Cc1cccc(C)c1NC(=O)C(C)N` (stereo not drawn) [Tocainide hydrochloride]: the growth inhibition was found to be 50%.

For `Clc1ccc2nsnc2c1NC1=NCCN1` [Tizanidine hydrochloride], the growth inhibition came to 45.8%.

On to `Cc1ccc(-c2cc(C(F)(F)F)nn2-c2ccc(S(N)(=O)=O)cc2)cc1` [Celecoxib], for which the growth inhibition is -2.46%.

`C[C@@H](N)[C@H]1CC[C@H](C(=O)Nc2ccncc2)CC1`: the growth inhibition was determined as 36.9%.

`COc1ccccc1CNCCCCCCNCCCCCCCCNCCCCCCNCc1ccccc1OC` [Methoctramine tetrahydrochloride]: the growth inhibition is 30.7%.

As to `NCC=CC(=O)O` (stereo in doubt) [cis-4-Aminocrotonic acid], the growth inhibition was determined as 56.2%.

In the case of `O=[N+]([O-])c1cc2nc(O)c(O)nc2cc1[N+](=O)[O-]`, the growth inhibition worked out at 43%.

Regarding `Nc1ccc(-c2ccc3ccccc3n2)cc1` [BF-170 hydrochloride], the growth inhibition is 42.4%.

Source of the values: the supplement of paper PMC8326762, “A Small Molecule Inhibitor of Pex3–Pex19 Interaction Disrupts Glycosome Biogenesis and Causes Lethality in Trypanosoma brucei” (Frontiers in Cell and Developmental Biology, 2021).
